According to PubChem BioAssay AID493014 (National Center for Advancing Translational Sciences (NCATS), 2011):
The list shows a part of the results. Shown are side measurements of this screen, not its main read-out; they come without a call. The list favours compounds with an active or inconclusive main result. The note in brackets gives the kind of curve behind each potency; many fits are weak.

Assay: qHTS Assay to Find Inhibitors of Chronic Active B-Cell Receptor Signaling
Conditions: ABC-DLBCL IkBa-CBG/CBR reporter, luminescence ratio (green luciferase fused to IkBa over red control in TMD8 lymphoma cells), 4 h
Method in brief: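 Compounds up to 46 uM were incubated four hours with TMD8 cells whose green CBG68 luciferase is fused to IkappaBalpha; red CBR luminescence normalised the signal, and concentration-effect curves were fitted to fusion, red and ratio data.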

[1] = measured here: CBR red luminescence, cell number
[2] = measured here: IkBa-CBG green luminescence

| SMILES | AC50 [1] | AC50 [2] |
| --- | --- | --- |
| COc1ccc(C(=O)N2CCN(Cc3cn[nH]c3-c3ccc(OC)cc3F)CC2)cc1 | 6.31 µM [rising, single point] |  |
| CC1Cc2ccccc2N1C(=O)CSc1nc2ccccc2s1 (stereo unspecified) | 1.16 µM [rising, full curve, poor fit] |  |
| CCOCCCNC(=O)c1ccc2c(c1)N=C(CC)c1cc(Br)ccc1S2 | 0.501 µM [rising, full curve] | 0.355 µM [falling, full curve] |
| COc1cc(/C=N/NC(=O)c2ccc(O)cc2)ccc1Oc1ccc([N+](=O)[O-])cn1 | 0.184 µM [falling, full curve] |  |
| COc1ccccc1/C=C/C(=O)NC(=S)N(C)C1CCCCC1 | 35.5 µM [falling, single point] |  |
| COC(=O)c1ccc(CN2C(=O)C3CCCCC3C2=O)o1 (stereo unspecified) | 0.316 µM [falling, full curve, poor fit] |  |
| COc1cc2c(cc1OC)CN(C1CCC(C)CC1)CC2 (stereo unspecified) | 6.31 µM [rising, partial curve, poor fit] |  |
| C/C(=N\N=C\c1ccc(N(C)C)cc1)c1cccc([N+](=O)[O-])c1 | 25.9 µM [rising, partial curve, poor fit] |  |
| CC(C)CN(C(=O)CN1CCN(c2ccc([N+](=O)[O-])cc2)CC1)c1c(N)n(CC(C)C)c(=O)[nH]c1=O | 3.98 µM [rising, partial curve, poor fit] |  |
| Cc1ccccc1-c1nc(CS(=O)CC(=O)NCc2ccc3c(c2)OCO3)c(C)o1 (stereo unspecified) | 22.4 µM [falling, single point] |  |
| Cc1cccc(NC(=O)c2ccc(NC(=O)c3ccccc3Br)cc2)c1 | 8.91 µM [falling, partial curve, poor fit] |  |
| CC1Sc2ccc(S(=O)(=O)N3CCC(C(=O)NCc4ccc(Cl)cc4)CC3)cc2NC1=O (stereo unspecified) | 20 µM [falling, partial curve, poor fit] |  |
| COC(=O)c1[nH]c2ccccc2c1Sc1ccccc1 | 31.6 µM [rising, single point] |  |
| CCCOc1ccc(N2C(=O)CC(N(CCc3ccc(OC)c(OC)c3)C(=S)Nc3ccccc3)C2=O)cc1 (stereo unspecified) | 6.51 µM [falling, partial curve] |  |
| O=C(CCN1C(=O)COc2ccccc21)N1CCCCC1 | 29.1 µM [rising, single point] |  |
| N#CC1=C(N)Oc2c(O)cc3ccccc3c2C1c1ccsc1 (stereo unspecified) | 23.1 µM [falling, partial curve, poor fit] | 25.9 µM [rising, single point] |
| COCC(=O)Nc1ccc(C)c(Cl)c1 | 4.11 µM [rising, full curve, poor fit] |  |
| CCn1c2ccccc2c2cc(C3C(C#N)=C(N)Oc4n[nH]c(COC)c43)ccc21 (stereo unspecified) | 29.1 µM [rising, partial curve, poor fit] | 13 µM [falling, partial curve] |
| Cc1ccc(N/N=C(\C#N)C(=N)N2CCCCCC2)cc1 | 35.5 µM [falling, partial curve, poor fit] |  |
| CCN(CC)C(=O)Oc1ccc2ccccc2c1Cl | 9.2 µM [rising, partial curve, poor fit] |  |
| N#Cc1cc(Oc2cccc3cccnc23)c(-n2nnc3ccccc32)cc1C#N |  | 5.62 µM [falling, single point] |

| SMILES | AC50 [1] | AC50 [2] |
| --- | --- | --- |
| Cc1nnc(N/N=C/c2cccc(OCc3ccc(Cl)c(Cl)c3)c2)n1N | 29.1 µM [falling, single point] |  |
| O=C(O)/C=C/S(=O)(=O)c1ccc2ccccc2c1 | 15.8 µM [falling, single point] |  |
| COc1ccccc1NC(=O)c1cc(N2C(=O)C3C4CCC(C4)C3C2=O)ccc1Cl (stereo unspecified) | 10 µM [falling, partial curve] |  |
| CCC(=O)N1CC2(CC(c3cccc(NC(=O)COc4ccc(Cl)cc4)c3)=NO2)C[C@@H]1C(N)=O (stereo partly specified) | 22.4 µM [falling, single point] |  |
| C[C@H](CO)N1C[C@H](C)[C@@H](CN(C)S(=O)(=O)c2cccs2)Oc2c(NC(=O)Nc3ccc4c(c3)OCO4)cccc2C1=O | 16.4 µM [falling, single point] |  |
| CCOC(=O)N1CCN(c2ncnc3scc(-c4ccc(Cl)cc4)c23)CC1 | 2.24 µM [rising, partial curve] |  |
| CNC(=S)N(C1=NCC(c2ccc([N+](=O)[O-])cc2)S1)c1ccccc1 (stereo unspecified) | 35.5 µM [falling, single point] |  |
| CCCc1nnc(NC(=O)CCC(=O)N2CCN(CCn3c(C)ccc3C)CC2)s1 | 11.2 µM [rising, single point] |  |
| COc1ccccc1NC(=O)Nc1ccc(N2CCOCC2)cc1 | 3.16 µM [falling, full curve] |  |
| Cc1ccc(OCCCC(=O)N2CCOCC2)c(C)c1 | 7.31 µM [rising, partial curve, poor fit] |  |
| O=C(Nc1ccc(Br)cn1)c1cccc(S(=O)(=O)N2CCCC2)c1 | 23.1 µM [falling, single point] |  |
| Cc1ncc(/C=C2\C(=O)Nc3ccccc32)[nH]1 | 12.6 µM [falling, partial curve, poor fit] |  |
| Cc1c(CCC(=O)O)c(=O)oc2cc(OCc3cccc(Cl)c3)ccc12 | 6.31 µM [falling, single point] |  |
| Cc1ccc2[nH]c3nc(N/N=C/c4cccc(O)c4)nnc3c2c1 | 1.12 µM [falling, full curve] | 1.12 µM [rising, full curve, poor fit] |
| CC(=Nc1cccc(O)c1)c1sc2ccccc2c1O | 32.6 µM [rising, single point] |  |
| O=C1c2cccnc2C(=O)N1c1cccc(-c2nc3ccccc3o2)c1 | 18.4 µM [falling, single point] |  |
| COc1ccc(Cc2nc3ccccc3n2C)cc1 | 6.31 µM [falling, single point] |  |
| C=CC[C@H](CC(=O)NCCO)C(=O)N[C@H](COC(=O)[C@@H](CC=C)Cc1ccc(F)cc1)Cc1ccccc1 | 20.6 µM [falling, single point] |  |
| CNc1ccccc1C(=O)OCC(=O)c1ccccc1 | 20.6 µM [falling, partial curve] |  |
| Cc1ccc(NC(=O)c2ccc(Cl)c(NC(=O)c3cccs3)c2)cc1 | 35.5 µM [falling, single point] |  |
| COc1ccc(/C=C/C(=O)O/N=C(\N)c2ccccn2)cc1OC | 23.1 µM [falling, single point] |  |

| SMILES | AC50 [1] | AC50 [2] |
| --- | --- | --- |
| Cc1ccc(/C=C2\OC(=O)c3ccccc32)cc1 | 5.62 µM [rising, full curve, poor fit] |  |
| COc1ccccc1C1c2ccc3ccccc3c2Oc2ncn(CCN(C)C)c(=N)c21 (stereo unspecified) |  | 35.5 µM [falling, single point] |
| N#C/C(=C\c1c(Oc2ccc(Cl)cc2)nc2ccccn2c1=O)C(=O)NC1CCS(=O)(=O)C1 (stereo unspecified) | 35.5 µM [falling, single point] |  |
| Cc1ccc2oc(-c3ccc(NC(=O)CC(C)C)cc3)nc2c1 | 0.501 µM [rising, full curve, poor fit] |  |
| COc1cc2c3c(c1)C1(C(=O)N3C(C)(C)C=C2C)C(C#N)=C(N)Oc2cc(C)oc(=O)c21 (stereo unspecified) | 5.01 µM [rising, partial curve, poor fit] |  |
| CCN(CC)Cc1c(C(=O)N/N=C/c2ccco2)nnn1-c1nonc1N | 22.4 µM [falling, single point] |  |
| CC(=O)Nc1nc(C)c(-c2nc3ccc([N+](=O)[O-])cc3[nH]2)s1 | 14.1 µM [rising, partial curve] |  |
| Cc1csc(SCC(=O)Nc2ncc(Cl)c(C)c2Cl)n1 | 0.0891 µM [falling, full curve, poor fit] |  |
| c1ccc(OCc2nc(-c3ccncc3)no2)cc1 | 0.251 µM [rising, full curve, poor fit] |  |
| Cc1c(CCO)c(=O)[nH]n1C(=O)c1c(F)cccc1F |  | 3.66 µM [rising, partial curve, poor fit] |
| CN(C)S(=O)(=O)c1ccc(Cl)c(NC(=O)COC(=O)c2cc(-c3ccccc3)nc3ccccc23)c1 | 3.66 µM [falling, partial curve, poor fit] |  |
| Cc1nnc(N2C(=O)c3cccc4cccc(c34)C2=O)s1 | 1.46 µM [rising, partial curve, poor fit] |  |
| OC(CNCCc1ccc(C(F)(F)F)cc1)COC(c1ccccc1)c1ccccc1 (stereo unspecified) | 22.4 µM [falling, single point] |  |
| Cc1cccc(CC2S/C(=N/N=C/c3ccco3)NC2=O)c1 (stereo unspecified) | 14.1 µM [rising, single point] |  |
| COc1ccccc1N1CCN(C(=O)c2nn(-c3ccccc3OC)c(=O)c3ccccc23)CC1 | 29.1 µM [falling, partial curve, poor fit] |  |
| Cc1nccn1Cc1cccc2ccccc12 | 2.06 µM [falling, partial curve, poor fit] |  |
| COc1ccc(CCNC(=O)CCn2c(=O)c3cccn3c3ccc(F)cc32)c(OC)c1OC | 0.794 µM [rising, full curve] |  |
| COc1ccccc1-c1nnc(SCC(=O)Nc2c(Cl)cccc2Cl)o1 | 0.103 µM [rising, full curve, poor fit] |  |
| Cc1nn2c(NCc3ccccn3)c3c(nc2c1-c1ccccc1)CCC3 | 3.55 µM [rising, partial curve] |  |
| C/C(NC(=O)c1ccccc1)=C1/C(=O)CC2C1C2(C)C (stereo unspecified) | 7.08 µM [rising, full curve, poor fit] |  |

Some of the entries above, reformatted.
COc1ccc(CCNC(=O)CCn2c(=O)c3cccn3c3ccc(F)cc32)c(OC)c1OC
  AC50 [1]: 0.794 µM [rising, full curve]
COc1ccccc1-c1nnc(SCC(=O)Nc2c(Cl)cccc2Cl)o1
  AC50 [1]: 0.103 µM [rising, full curve, poor fit]
